No constants are given. Whether binding was seen depends on the method and setting. Tags and fused reporters may be left off the sequences shown.
Biological target: Saccharomyces cerevisiae arginine transferase (ATE1), His-tagged (S. cerevisiae) (UniProt P16639)
Assay: SEC; 120 mL gel filtration column, 4 °C, 50 mmol/L Tris pH 7.5, 100 mmol/L KCl, 1 mmol/L DTT, 0.7 mol/L glycerol; monomer elutes at ≈60 kDa; both purified

binding: no binding
B1: Saccharomyces cerevisiae arginine transferase (ATE1), His-tagged (enzyme, UniProt P16639 1-503)
chain: MSDRFVIWAPSMHNEPAAKCGYCHGNKGGNMDQLFALDSWAHRYMNKMDVVKIENCTIGSFVEHMDVATYDRMCNMGFRRSGKFLYKVDPLRNCCRLYTIRTAPQELNMTKELKKCISRFATRITSEDYCPAAVASSDFVGKIVNAEMNSKTFYTRFEPALYSEEKYHLFVKYQEKVHQDYNNSPKSFKRFLCDTPFGPEAVLGTQESWEQLNNWQRMKPGEKLKHMGPVHECYYYEGKLIAITVSDILPSGISSVYFIWDPDYSKWSLGKLSALRDLAIIQRTNLQYYYLGYYIEDCPKMNYKANYGAEVLDVCHSKYIPLKPIQDMISRGKLFVIGEEETKVTKELYLVDSETGRGEGFPTDNVVKYKNIAEEIYGVGGCAFKSANESALELKELYGIPYEEEDLDTIYHLKEHNGHAPNGIPNVVPGLLPLWELLDIMQSGKITDLEGRLFLFEIETEGIRPLINFYSEPPNVKKRICDVIRLFGFETCMKAVILYSEQM
